# In the supplement of paper PMC8728848:
# The other results are listed elsewhere or left out.
# B1: BIp1-His (Cryptococcus neoformans) (protein)
# chain: MFTKIFVALFAATAVLSAPVESAEKRITHTGRATFYSPSVGIGACGWQNTDEELVVALNAPQYALNADHNCGQSVRITNEQNGNQEIAKVVDLCPGCNDGDLDMSPALFGALNNNDFDQGVFPISWNFLPRDDTSSSN
# Columns and labels:
# Test in all cases: glycan array binding signal (z-score within array); higher = stronger binding
# Conditions in all cases: glycan notation: IUPAC condensed, linker removed
# [1] = molecular target: Neu5Ac(a2-6)Gal(b1-4)GlcNAc(b1-2)Man(a1-3)[GlcNAc(b1-2)Man(a1-6)]Man(b1-4)GlcNAc(b1-4)GlcNAc
# Summary of the method: (§1)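 Negative Z-scores can be read as non-binding. The Z-score is calculated within each array and then averaged across arrays of one protein sequence at different concentrations or buffers and across linkers. Arrays, 3228 in all, were curated from the Consortium for Functional Glycomics database and kept only where the protein sequence was available.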
# [2] = molecular target: Neu5Ac(a2-6)Gal(b1-4)GlcNAc(b1-2)Man(a1-3)[GlcNAc(b1-4)][Neu5Ac(a2-6)Gal(b1-4)GlcNAc(b1-2)Man(a1-6)]Man(b1-4)GlcNAc(b1-4)GlcNAc
# Summary of the method: as §1
# [3] = molecular target: Neu5Ac(a2-6)Gal(b1-4)GlcNAc(b1-2)Man(a1-3)[Man(a1-6)]Man(b1-4)GlcNAc(b1-4)GlcNAc
# Summary of the method: as §1
# [4] = molecular target: Neu5Ac(a2-6)Gal(b1-4)GlcNAc(b1-2)Man(a1-3)[Neu5Ac(a2-3)Gal(b1-4)GlcNAc(b1-2)Man(a1-6)]Man(b1-4)GlcNAc(b1-4)GlcNAc
# Summary of the method: as §1
# [5] = molecular target: Neu5Ac(a2-6)Gal(b1-4)GlcNAc(b1-2)Man(a1-3)[Neu5Ac(a2-6)Gal(b1-4)GlcNAc(b1-2)Man(a1-6)]Man(b1-4)GlcNAc(b1-4)GlcNAc
# Summary of the method: as §1
# [6] = molecular target: Neu5Ac(a2-6)Gal(b1-4)GlcNAc(b1-2)Man(a1-3)[Neu5Ac(a2-6)Gal(b1-4)GlcNAc(b1-2)Man(a1-6)]Man(b1-4)GlcNAc(b1-4)[Fuc(a1-6)]GlcNAc
# Summary of the method: as §1
# [7] = molecular target: Neu5Ac(a2-6)Gal(b1-4)GlcNAc(b1-2)Man(a1-6)Man(b1-4)GlcNAc(b1-4)GlcNAc
# Summary of the method: as §1
# [8] = molecular target: Neu5Ac(a2-6)Gal(b1-4)GlcNAc(b1-2)Man(a1-6)[Gal(b1-4)GlcNAc(b1-2)Man(a1-3)]Man(b1-4)GlcNAc(b1-4)GlcNAc
# Summary of the method: as §1
# [9] = molecular target: Neu5Ac(a2-6)Gal(b1-4)GlcNAc(b1-2)Man(a1-6)[GlcNAc(b1-2)Man(a1-3)]Man(b1-4)GlcNAc(b1-4)GlcNAc
# Summary of the method: as §1
# [10] = molecular target: Neu5Ac(a2-6)Gal(b1-4)GlcNAc(b1-2)Man(a1-6)[Man(a1-3)]Man(b1-4)GlcNAc(b1-4)GlcNAc
# Summary of the method: as §1
# [11] = molecular target: Neu5Ac(a2-6)Gal(b1-4)GlcNAc(b1-2)[Neu5Ac(a2-6)Gal(b1-4)GlcNAc(b1-4)]Man(a1-3)[GlcNAc(b1-4)][Neu5Ac(a2-6)Gal(b1-4)GlcNAc(b1-2)[Neu5Ac(a2-6)Gal(b1-4)GlcNAc(b1-6)]Man(a1-6)]Man(b1-4)GlcNAc(b1-4)GlcNAc
# Summary of the method: as §1
# [12] = molecular target: Neu5Ac(a2-6)Gal(b1-4)GlcNAc(b1-2)[Neu5Ac(a2-6)Gal(b1-4)GlcNAc(b1-4)]Man(a1-3)[GlcNAc(b1-4)][Neu5Ac(a2-6)Gal(b1-4)GlcNAc(b1-4)Man(a1-6)]Man(b1-4)GlcNAc(b1-4)GlcNAc
# Summary of the method: as §1
# [13] = molecular target: Neu5Ac(a2-6)Gal(b1-4)GlcNAc(b1-2)[Neu5Ac(a2-6)Gal(b1-4)GlcNAc(b1-6)]Man(a1-6)[Neu5Ac(a2-6)Gal(b1-4)GlcNAc(b1-2)Man(a1-3)][GlcNAc(b1-4)]Man(b1-4)GlcNAc(b1-4)GlcNAc
# Summary of the method: as §1
# [14] = molecular target: Neu5Ac(a2-6)Gal(b1-4)GlcNAc(b1-3)Gal(b1-3)GlcNAc
# Summary of the method: as §1
# [15] = molecular target: Neu5Ac(a2-6)Gal(b1-4)GlcNAc(b1-3)Gal(b1-4)GlcNAc
# Summary of the method: as §1
# [16] = molecular target: Neu5Ac(a2-6)Gal(b1-4)GlcNAc(b1-3)Gal(b1-4)GlcNAc(b1-2)Man(a1-3)[Neu5Ac(a2-6)Gal(b1-4)GlcNAc(b1-3)Gal(b1-4)GlcNAc(b1-2)Man(a1-6)]GalNAc
# Summary of the method: as §1
# [17] = molecular target: Neu5Ac(a2-6)Gal(b1-4)GlcNAc(b1-3)Gal(b1-4)GlcNAc(b1-3)Gal(b1-4)GlcNAc
# Summary of the method: as §1
# [18] = molecular target: Neu5Ac(a2-6)Gal(b1-4)GlcNAc(b1-3)Gal(b1-4)GlcNAc(b1-3)Gal(b1-4)GlcNAc(b1-2)Man(a1-3)[Neu5Ac(a2-6)Gal(b1-4)GlcNAc(b1-3)Gal(b1-4)GlcNAc(b1-3)Gal(b1-4)GlcNAc(b1-2)Man(a1-6)]GalNAc
# Summary of the method: as §1
# [19] = molecular target: Neu5Ac(a2-6)Gal(b1-4)GlcNAc(b1-3)Gal(b1-4)GlcNAc(b1-3)GalNAc
# Summary of the method: as §1
# [20] = molecular target: Neu5Ac(a2-6)Gal(b1-4)GlcNAc(b1-3)Gal(b1-4)GlcNAc(b1-3)[Neu5Ac(a2-6)Gal(b1-4)GlcNAc(b1-3)Gal(b1-4)GlcNAc(b1-6)]GalNAc
# Summary of the method: as §1
# [21] = molecular target: Neu5Ac(a2-6)Gal(b1-4)GlcNAc(b1-3)Gal(b1-4)GlcNAc(b1-6)[Gal(b1-3)]GalNAc
# Summary of the method: as §1
# [22] = molecular target: Neu5Ac(a2-6)Gal(b1-4)GlcNAc(b1-3)Gal(b1-4)[Fuc(a1-3)]GlcNAc(b1-3)Gal(b1-4)[Fuc(a1-3)]GlcNAc
# Summary of the method: as §1
# [23] = molecular target: Neu5Ac(a2-6)Gal(b1-4)GlcNAc(b1-3)GalNAc
# Summary of the method: as §1
# [24] = molecular target: Neu5Ac(a2-6)Gal(b1-4)GlcNAc(b1-3)[Neu5Ac(a2-6)Gal(b1-4)GlcNAc(b1-6)]GalNAc
# Summary of the method: as §1
# [25] = molecular target: Neu5Ac(a2-6)Gal(b1-4)GlcNAc(b1-6)GalNAc
# Summary of the method: as §1
# [26] = molecular target: Neu5Ac(a2-6)Gal(b1-4)GlcNAc(b1-6)[Gal(b1-3)GlcNAc(b1-3)]Gal(b1-4)Glc
# Summary of the method: as §1
# [27] = molecular target: Neu5Ac(a2-6)Gal(b1-4)GlcNAc(b1-6)[Gal(b1-3)]GalNAc
# Summary of the method: as §1
# [28] = molecular target: Neu5Ac(a2-6)Gal(b1-4)GlcNAc6S
# Summary of the method: as §1
# Neu5Ac(a2-6)GalNAc = molecular target: Neu5Ac(a2-6)GalNAc
# Summary of the method: as §1
# [29] = molecular target: Neu5Ac(a2-6)GalNAc(b1-4)GlcNAc
# Summary of the method: as §1
# [30] = molecular target: Neu5Ac(a2-6)GalNAc(b1-4)GlcNAc6S
# Summary of the method: as §1
# [31] = molecular target: Neu5Ac(a2-6)GlcNAc(b1-4)GlcNAc
# Summary of the method: as §1
binder,measurement,setting,value
B1,glycan array binding signal (z-score),[1],-0.486
same,glycan array binding signal (z-score),[2],-0.969
same,glycan array binding signal (z-score),[3],1.04
same,glycan array binding signal (z-score),[4],-0.486
same,glycan array binding signal (z-score),[5],-0.281
same,glycan array binding signal (z-score),[6],0.617
same,glycan array binding signal (z-score),[7],0.635
same,glycan array binding signal (z-score),[8],0.877
same,glycan array binding signal (z-score),[9],-0.415
same,glycan array binding signal (z-score),[10],0.266
same,glycan array binding signal (z-score),[11],-0.066
same,glycan array binding signal (z-score),[12],0.171
same,glycan array binding signal (z-score),[13],-0.142
same,glycan array binding signal (z-score),[14],-0.472
same,glycan array binding signal (z-score),[15],-1.05
same,glycan array binding signal (z-score),[16],-0.186
same,glycan array binding signal (z-score),[17],-0.069
same,glycan array binding signal (z-score),[18],1.79
same,glycan array binding signal (z-score),[19],-0.51
same,glycan array binding signal (z-score),[20],0.847
same,glycan array binding signal (z-score),[21],-0.827
same,glycan array binding signal (z-score),[22],-0.059
same,glycan array binding signal (z-score),[23],0.627
same,glycan array binding signal (z-score),[24],0.732
same,glycan array binding signal (z-score),[25],0.072
same,glycan array binding signal (z-score),[26],-0.354
same,glycan array binding signal (z-score),[27],-0.295
same,glycan array binding signal (z-score),[28],-1.31
same,glycan array binding signal (z-score),Neu5Ac(a2-6)GalNAc,-0.91
same,glycan array binding signal (z-score),[29],-1.18
same,glycan array binding signal (z-score),[30],-0.643
same,glycan array binding signal (z-score),[31],-0.869

# Quoted from above (two entries):
binder,measurement,setting,value
B1,glycan array binding signal (z-score),[24],0.732
same,glycan array binding signal (z-score),[25],0.072
